Results reported in PubChem BioAssay (EPA / NIEHS).
Where “and” joins values, the source holds several entries; their conditions need not be identical. Equal entries are not always repeated. Inconclusive means that the source gave no clear call. Such entries were picked first, then a sample of the others. Potencies of inconclusive entries are doubtful fits and often do not repeat. Where a structure was tested more than once in an assay, its records may differ in their call. Calls of active or inactive are those of the source. Rule for the calls: active = hit-call score of the fitted dose curve at least 0.9, where 1 is the maximum; inconclusive = response in the unintended direction; inactive = score below 0.9.

assay: TOX21_p53_BLA_p3_viability: Viability Assessment in the Tox21 HCT-116 p53 Agonism Beta-lactamase Assay, Phase 3 (AID 2283593);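 note: cells exposed to compound for 16 h before reading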
Description: TOX21_p53_BLA_p3 is a cell-based, single-readout assay that uses HCT116, a human intestinal cell line, […] in a 1536-well plate.TOX21_p53_BLA_p3_viability is an assay readout measuring cellular ATP content and detected with CellTiter-Glo Luciferase-coupled ATP quantitation.TOX21_p53_BLA_p3_viability used a type of viability reporter where loss-of-signal activity can be used to understand changes in the cell viability. Furthermore, this assay endpoint can be referred to as a secondary readout, because this assay has produced multiple assay endpoints where this one serves a viability function. To generalize the intended target to other relatable targets, this assay endpoint is annotated to the cell cycle intended target family, where the subfamily is cytotoxicity.
Thawing Method: Place 14 mL of pre-warmed thaw medium into a 15 mL of conical tub. Remove the vial of cells to be thawed from liquid nitrogen and thaw rapidly by placing at 37C in a water bath with gentle agitation for 1-2 minutes. Decontaminate the vial by wiping with 70% ethanol before opening in a biological safety cabinet. Transfer the vial contents drop-wise into 14 mL of thaw medium in a sterile 15-mL conical tub. Centrifuge cells at 900 rpm for 4 minutes and resuspend in thaw medium. Transfer contents to the T75 tissue culture flask containing Thaw Medium and place flask in a humidified 37C/5% CO2 incubator. Switch to growth medium at first passage.Propagation Method: Aspirate medium, rinse once in DPBS, add 0.25% Trypsin/EDTA and swirl to coat the cell evenly. Add an equal volume of Growth Medium to inactivate Trypsin after 2-3 minutes incubation at 37C. Centrifuge cells at 900 rpm for 4 minutes and resuspend in growth medium. Cell should be passage or fed at least twice a week.Assay Protocol: Harvest cells from culture in growth medium and resuspend in assay medium. 2.2 Dispense 4000 cells/5 uL/well into 1536-well black/clear bottom plates using a Multidrop dispenser. After the cells were incubated at 37C for 5 hours, 23 nL of compounds dissolved in DMSO were transferred to the assay plate by a PinTool resulting in a 217-fold dilution. Incubate the plates for 16 hours at 37C, 5% CO2. Add 1 uL of 6X LiveBLAzer FRET B/G (CCF4-AM) Substrate Mixture to each well using a BioRAPTR dispenser and incubate the plates at room temperature for 2 hours. Measure fluorescence intensity at 460 and 530 nm emission and 405 nm excitation by an Envision detector. Data is expressed as the ratio of 460nm/530nm emissions. Add 4 uL of Cell-titer Glo to each well using BioRAPTR and incubate the plates at room temperature for […]. For cell viability readout that measures cytotoxicity, 4 ul/well of CellTiter-Glo reagent was added into the assay plates using a Flying Reagent Dispenser. After 30 min incubation at room temperature, the luminescence intensity in the plates was measured using a ViewLux plate reader.

| Structure (SMILES) | outcome | AC50 |
| --- | --- | --- |
| CC(C)Nc1ccc(Nc2ccccc2)cc1 | inactive | – |
| C=CC(=O)OCC(CC)CCCC (stereo not given) | inactive | – |
| CCC(C)(NC(=O)c1cc(Cl)c(C)c(Cl)c1)C(=O)CCl (stereo not given) | – | active: 76.4 µM |
| CNC(=O)Oc1cccc2ccccc12 | inactive | inconclusive: 46.1 µM and inconclusive: 23 µM |
| CCOc1cccc(C2(N3CCN(c4ccccc4)CC3)CCC(C)CC2)c1 (stereo not given) | – | inconclusive: 11.7 µM |
| CC(Cc1ccc(OCC(=O)O)cc1)NCC(O)c1csc(C(F)(F)F)n1 (stereo not given) | – | inconclusive: 46.1 µM |
| O=S1OC[C@@H]2[C@H](CO1)[C@]1(Cl)C(Cl)=C(Cl)[C@@]2(Cl)C1(Cl)Cl (stereo not given in full) | – | active: 84.1 µM |
| CCNc1nc(Cl)nc(NCC)n1 | – | inconclusive: 74.7 µM and inconclusive: 23 µM |
| C=CC(=O)OCC(CC)(COC(=O)C=C)COC(=O)C=C | – | active: 69.2 µM and active: 16.2 µM |
| N#CCNCC#N | – | inconclusive: 46.1 µM |
| O=C(O)C(F)(F)C(F)(F)C(F)(F)C(F)(F)C(F)(F)F | – | inconclusive: 46.1 µM |
| CC1(C)CCC(=Cc2ccc(Cl)cc2)C1(O)Cn1cncn1 (stereo not given) | inactive | – |
| CCCCOC(=O)c1ccccc1C(=O)OCCCC | inactive | inconclusive: 9.15 µM |
| CCOC(=O)CCN(SN(C)C(=O)Oc1cccc2c1OC(C)(C)C2)C(C)C | – | inconclusive: 0.00856 µM |
| c1nc[nH]n1 | – | inconclusive: 1.57 µM and inconclusive: 45.3 µM |
| O=[N+]([O-])c1cc([As](=O)(O)O)ccc1O | inactive | – |
| O=C(O)COc1ccccc1 | inactive | inconclusive: 85.8 µM and inconclusive: 23 µM |
| Cn1cc(-c2ccccc2)c(=O)c(-c2cccc(C(F)(F)F)c2)c1 | – | inconclusive: 87 µM and inconclusive: 45.2 µM |

Not a retest: an excerpt of the list.

| Structure (SMILES) | outcome | AC50 |
| --- | --- | --- |
| O=C(O)COc1ccccc1 | inactive | inconclusive: 85.8 µM and inconclusive: 23 µM |
| Cn1cc(-c2ccccc2)c(=O)c(-c2cccc(C(F)(F)F)c2)c1 | – | inconclusive: 87 µM and inconclusive: 45.2 µM |

(cont.)

| Structure (SMILES) | outcome | AC50 |
| --- | --- | --- |
| CC(C)OC(=O)Nc1cccc(Cl)c1 | – | inconclusive: 46.1 µM |
| CCCCOCCOC(C)=O | – | inconclusive: 0.186 µM |
| O=C1C(Cl)=C(Cl)C(=O)C(Cl)=C1Cl | – | active: 21.6 µM and active: 44.2 µM |
| CCCCCCCCSC(=O)Oc1cc(Cl)nnc1-c1ccccc1 | – | active: 59.1 µM |
| Oc1ccc(Cc2ccc(O)cc2)cc1 | – | inconclusive: 0.0965 µM |
| Nc1ccc(-c2ccccc2)cc1 | – | inconclusive: 88.9 µM |
| Cc1cccc(N)c1 | – | inconclusive: 46.3 µM |
| CC(C)(C)c1cc(O)ccc1O | – | inconclusive: 46.1 µM and inconclusive: 43.2 µM |
| c1ccc2c(c1)sc1ccccc12 | – | inconclusive: 46.1 µM |
| OCC(O)CCl (stereo not given) | inactive | inconclusive: 46.1 µM |
| CC(C)OC(=O)Nc1ccccc1 | inactive | – |
| CCCCN(CC)C(=O)SCCC | – | inconclusive: 46.1 µM |
| c1cc[n+]2c(c1)-c1cccc[n+]1CC2 | inactive | – |
| c1ccc(Nc2ccc3ccccc3c2)cc1 | inactive | – |
| CC(C)(c1ccc(OCC2CO2)cc1)c1ccc(OCC2CO2)cc1 (stereo not given) | inactive | active: 64.5 µM |
| CCC[CH2][Sn]([Cl])([CH2]CCC)[CH2]CCC | – | active: 921 nM and active: 958 nM |
| CNC(=S)S | – | inconclusive: 46.1 µM |
